The data set concerns CA19-9 modified proteins. Nature of the data set: CA19-9 IP/MS (iTRAQ) of organoid conditioned media after Dox treatment. Details: species or system mouse. Particulars: for 17 0H 5B1 (CA19-9 IP/MS relative abundance) / 17 0H NS19 (CA19-9 IP/MS relative abundance) / 17 8H 5B1 (CA19-9 IP/MS relative abundance) / 17 8H NS19 (CA19-9 IP/MS relative abundance): A217 organoid conditioned media; for 17 0H NS19 (CA19-9 IP/MS relative abundance) / 17 8H NS19 (CA19-9 IP/MS relative abundance) / 20 0H NS19 (CA19-9 IP/MS relative abundance) / 20 8H NS19 (CA19-9 IP/MS relative abundance): NS19-9; for 17 0H NS19 (CA19-9 IP/MS relative abundance): every printed value in this column is 1; for 20 0H 5B1 (CA19-9 IP/MS relative abundance) / 20 0H NS19 (CA19-9 IP/MS relative abundance) / 20 8H 5B1 (CA19-9 IP/MS relative abundance) / 20 8H NS19 (CA19-9 IP/MS relative abundance): A220 organoid conditioned media.

B1: Q6GQT1 (protein, UniProt Q6GQT1 1-1474, looked up)
chain: MGKRWLPSLALLPLPPPLLLLLLLLLPTNASAPQKPIYMVMVPSLLHAGTPEKGCLLFNHLNETVTVKVSMESVRGNQSLFTDLVVDKDLFHCASFIVPQSSSNEVMFLTVQVKGPTHEFRRRSTVLIKTKESLVFAQTDKPIYKPGQMVRFRVVSLDENFHPLNELIPLLYIQDSKKNRIAQWQNFRLEGGLKQLSFPLSSEPTQGSYKVVIRTESGRTVEHPFSVKEFVLPKFEVKVAVPETITILEEEMNVSVCGIYTYGKPVPGHVTVNICRKYSNPSSCFGEESLAFCEKFSQQLDGRGCFSQLVKTKSFQLKRQEYEMQLDVNAKIQEEGTGVEETGKGLTKITRTITKLSFVNVDTHFRQGIPFVGQVLLVDGRGTPIPYEMIFIGADEANQNINTTTDKNGLARFSINTDDIMGTSLTVRAKYKDSNVCYGFRWLTEENVEAWHTANAVFSPSRSFVHLESLPYKLRCEQTLAVQAHYILNDEAVLERKELVFYYLMMAKGGIVRAGTHVLPVTQGHKKGHFSILISMETDLAPVARLVLYTILPNGEVVGDTVKYEIEKCLANKVDLVFHPNIGLPATRAFLSVMASPQSLCGLRAVDQSVLLTKPEAELSASLVYDLLPVKDLTGFPKGVNQQEEDTNGCLKQNDTYINGILYSPVQNTNEEDMYGFLKDMGLKVFTNLNIRKPKVCERLGVNKIPAAYHLVSQGHMDAFLESSESPTETTRSYFPETWIWDLVIVDSTGVAEMEVTVPDTITEWKAGAFCLSNDTGLGLSPVIDFQAFQPFFVDLTMPYSVIRGEAFTLKATVLNYLQTCIRVGVQLEASPDFLATPEEKEQKSHCICMNERHTMSWAVIPKSLGNVNFTVSAEALDSKELCRNEVPVVPERGKKDTIIKSLLVEPEGLENEVTFNSLLCPTGAEVSEQISLKLPSDVVEESARASVTVLGDILGSAMQNTQDLLKMPYGCGEQNMVLFAPNIYVLDYLNETEQLTQEIKTKAITYLNTGYQRQLNYKHRDGSYSTFGDKPGRSHANTWLTAFVLKSFAQARRYIFIDESHITQALTWLSQQQKDNGCFRSSGSLLNNAMKGGVEDEVTLSAYITIALLEMSLPVTHPVVRNALFCLDTAWKSARRGASGNHVYTKALLAYAFALAGNQDTKKEILKSLDEEAVKEDNSVHWTRAQKPRVPADLWYQPQAPSAEVEMTAYVLLAYLTTELVPTREDLTAAMLIVKWLTKQQNSHGGFSSTQDTVVALHALSKYGAATFTRAKKAAHVTIQSSGAFYTKFQVNNDNQLLLQRVTLPTVPGDYTAKVAGEGCVYLQTSLKYSVLPREKEFPFALVVQTLPGTCEDLKAHTTFQISLNISYIGSRSDSNMAIADVKMVSGFIPLKPTVKMLERSVHVSRTEVSNNHVLIYLDKVSNQMLTLFFMVQQDIPVRDLKPAIVKVYDYYEKDEFAVAKYSAPCSAGYGNA
modifications: full-length
With B1, the “17 0H 5B1 (CA19-9 IP/MS relative abundance)” value was determined as 1.798, the “17 0H NS19 (CA19-9 IP/MS relative abundance)” value is 1, the “17 8H 5B1 (CA19-9 IP/MS relative abundance)” value is listed as 1.95 and the “17 8H NS19 (CA19-9 IP/MS relative abundance)” value is listed as 0.494. Besides, the “20 0H 5B1 (CA19-9 IP/MS relative abundance)” value is given as 1.105, the “20 0H NS19 (CA19-9 IP/MS relative abundance)” value is listed as 0.154, the “20 8H 5B1 (CA19-9 IP/MS relative abundance)” value amounted to 1.629 and the “20 8H NS19 (CA19-9 IP/MS relative abundance)” value was determined as 0.214.

B2: Q9D964 (protein, UniProt Q9D964 1-423, looked up)
chain: MLRVRCLRGGSRGAEAVHYIGSRLGGSLTGWVQRTFQSTQAATASSRNSCAAEDKATHPLPKDCPVSSYNEWDPLEEVIVGRAENACVPPFTVEVKANTYEKYWPFYQKNGGLYFPKDHLKKAVAEVEEMCNILSMEGVTVRRPDPIDWSLKYKTPDFESTGLYSAMPRDILMVVGNEIIEAPMAWRSRFFEYRAYRSIIKDYFHRGAKWTTAPKPTMADELYDQNYPIHSVEDRHKLAAQGKFVTTEFEPCFDAADFIRAGRDIFAQRSQVTNYLGIEWMRRHLAPDYRVHIISFKDPNPMHIDATFNIIGPGLVLSNPDRPCHQIDLFKKAGWTIVTPPTPVIPDDHPLWMSSKWLSMNVLMLDEKRVMVDANEVPIQKMFEKLGISTIKVNIRNANSLGGGFHCWTCDVRRRGTLQSYFD
modifications: full-length
Take B2: the “17 0H 5B1 (CA19-9 IP/MS relative abundance)” value was determined as 1.699, the “17 0H NS19 (CA19-9 IP/MS relative abundance)” value was determined as 1, the “17 8H 5B1 (CA19-9 IP/MS relative abundance)” value came out at 1.883 and the “17 8H NS19 (CA19-9 IP/MS relative abundance)” value stood at 0.442. In addition, the “20 0H 5B1 (CA19-9 IP/MS relative abundance)” value is given as 1.674, the “20 0H NS19 (CA19-9 IP/MS relative abundance)” value is on record as 0.456, the “20 8H 5B1 (CA19-9 IP/MS relative abundance)” value came out at 1.752 and the “20 8H NS19 (CA19-9 IP/MS relative abundance)” value is on record as 0.518.
